{"source": "ChEMBL document CHEMBL2086312", "about": "“Synthesis and biological evaluation of new 5-benzylated 4-oxo-3,4-dihydro-5H-pyridazino[4,5-b]indoles as PI3Kα inhibitors” (Eur J Med Chem, 2012)", "system": "MDA-MB-231", "test": "Antiproliferative activity against human MDA-MB-231 cells incubated for 48 hrs by […] dye staining based assay", "type": "functional, cell-based", "conditions": "MDA-MB-231, 48 h", "method_in_brief": "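Cells were grown per ECACC recommendations and seeded in triplicate at 2 × 10³ (HCT-116) or 4 × 10³ (other lines) per well. After 24 h attachment, they were exposed 48 h to increasing concentrations of 0.1 to 25. Cells were then fixed in cold 90% ethanol/5% acetic acid, nuclei were Hoechst-stained, and nuclei were counted by automated imaging.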", "data": [{"smiles": "CC[C@H](CO)Nc1nc(NCc2ccccc2)c2ncn(C(C)C)c2n1", "note": "[SELICICLIB]", "values": [{"measurement": "IC50", "result": 12, "unit": "µM"}]}]}
